Results deposited as PubChem BioAssay AID1508597 (Cure First, 2020)
The deposit covers about 2,100 reagents; below is a part drawn at random. 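Calls flag viability under 80% in either arm, not effects specific to rucaparib; the reference for percent is not stated.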 Some reagents were tested in more than one well and are listed for each. The record does not give: the 100% reference.

Aim: 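Survival screen with siRNA in ovarian cancer cells derived from patients, with or without rucaparib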 (primary screen)
System: human ovarian carcinoma lines grown from tumours: OCI-P5x (papillary serous) and OCI-C5x (clear cell)
Knock-down reagent: siRNA pool against human genes, 1.25 pmol siRNA per well
Timing: 72 h or 96 h, depending on the cell culture
Challenge: rucaparib 20 µM (about IC30) or vehicle, present until read-out
Measured: 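Luminescent ATP-based viability assay read 72 or 96 h after transfection, depending on culture, given as normalised percent viability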
Reading the numbers: viability, normalised: higher = more viable cells remaining
Call rule: 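Active when normalised viability falls below 80 percent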
Calls: active = viability under 80%; inactive = viability 80% or more

gene | rucaparib or vehicle | cell line | technical replicate | viability, normalised (%) | outcome
SIRT1 | Rucaparib | OCI-C5x (clear cell) | 1 | 30.5 | active
SIRT1 | Rucaparib | OCI-C5x (clear cell) | 1 | 91.8 | inactive
SIRT1 | Rucaparib | OCI-C5x (clear cell) | 2 | 77.9 | active
SIRT1 | Rucaparib | OCI-C5x (clear cell) | 2 | 32.8 | active
SIRT1 | Rucaparib | OCI-C5x (clear cell) | 3 | 28.3 | active
SIRT1 | Rucaparib | OCI-C5x (clear cell) | 3 | 96.4 | inactive
SIRT1 | Rucaparib | OCI-P5x (serous) | 1 | 99.7 | inactive
SIRT1 | Rucaparib | OCI-P5x (serous) | 1 | 38 | active
SIRT1 | Rucaparib | OCI-P5x (serous) | 2 | 122 | inactive
SIRT1 | Rucaparib | OCI-P5x (serous) | 2 | 50.1 | active
SIRT1 | Rucaparib | OCI-P5x (serous) | 3 | 46 | active
SIRT1 | Rucaparib | OCI-P5x (serous) | 3 | 92.3 | inactive
SIRT1 | Vehicle | OCI-C5x (clear cell) | 1 | 23.8 | active
SIRT1 | Vehicle | OCI-C5x (clear cell) | 1 | 69.5 | active
SIRT1 | Vehicle | OCI-C5x (clear cell) | 2 | 36 | active
SIRT1 | Vehicle | OCI-C5x (clear cell) | 2 | 84.9 | inactive
SIRT1 | Vehicle | OCI-C5x (clear cell) | 3 | 35.7 | active
SIRT1 | Vehicle | OCI-C5x (clear cell) | 3 | 94.3 | inactive
SIRT1 | Vehicle | OCI-P5x (serous) | 1 | 42.5 | active
SIRT1 | Vehicle | OCI-P5x (serous) | 1 | 74.3 | active
SIRT1 | Vehicle | OCI-P5x (serous) | 2 | 57.8 | active
SIRT1 | Vehicle | OCI-P5x (serous) | 2 | 107 | inactive
SIRT1 | Vehicle | OCI-P5x (serous) | 3 | 80.8 | inactive
SIRT1 | Vehicle | OCI-P5x (serous) | 3 | 107 | inactive
BABAM2 | Rucaparib | OCI-C5x (clear cell) | 1 | 47.7 | active
BABAM2 | Rucaparib | OCI-C5x (clear cell) | 1 | 62 | active
BABAM2 | Rucaparib | OCI-C5x (clear cell) | 2 | 43.9 | active
BABAM2 | Rucaparib | OCI-C5x (clear cell) | 2 | 71.4 | active
BABAM2 | Rucaparib | OCI-C5x (clear cell) | 3 | 40.4 | active
BABAM2 | Rucaparib | OCI-C5x (clear cell) | 3 | 55.9 | active
BABAM2 | Rucaparib | OCI-P5x (serous) | 1 | 91.2 | inactive
BABAM2 | Rucaparib | OCI-P5x (serous) | 1 | 79.7 | active
BABAM2 | Rucaparib | OCI-P5x (serous) | 2 | 107 | inactive
BABAM2 | Rucaparib | OCI-P5x (serous) | 2 | 77.1 | active
BABAM2 | Rucaparib | OCI-P5x (serous) | 3 | 87.9 | inactive
BABAM2 | Rucaparib | OCI-P5x (serous) | 3 | 107 | inactive
BABAM2 | Vehicle | OCI-C5x (clear cell) | 1 | 77.6 | active
BABAM2 | Vehicle | OCI-C5x (clear cell) | 1 | 31.9 | active
BABAM2 | Vehicle | OCI-C5x (clear cell) | 2 | 74.7 | active
BABAM2 | Vehicle | OCI-C5x (clear cell) | 2 | 55.3 | active
BABAM2 | Vehicle | OCI-C5x (clear cell) | 3 | 61.7 | active
BABAM2 | Vehicle | OCI-C5x (clear cell) | 3 | 39.8 | active
BABAM2 | Vehicle | OCI-P5x (serous) | 1 | 84.5 | inactive
BABAM2 | Vehicle | OCI-P5x (serous) | 1 | 84.1 | inactive
BABAM2 | Vehicle | OCI-P5x (serous) | 2 | 86.6 | inactive
BABAM2 | Vehicle | OCI-P5x (serous) | 2 | 97.6 | inactive
BABAM2 | Vehicle | OCI-P5x (serous) | 3 | 102 | inactive
BABAM2 | Vehicle | OCI-P5x (serous) | 3 | 90 | inactive
USP28 | Rucaparib | OCI-C5x (clear cell) | 1 | 55.8 | active
USP28 | Rucaparib | OCI-C5x (clear cell) | 2 | 68.8 | active
USP28 | Rucaparib | OCI-C5x (clear cell) | 3 | 56.3 | active
USP28 | Rucaparib | OCI-P5x (serous) | 1 | 62.4 | active
USP28 | Rucaparib | OCI-P5x (serous) | 2 | 94.4 | inactive
USP28 | Rucaparib | OCI-P5x (serous) | 3 | 78.4 | active
USP28 | Vehicle | OCI-C5x (clear cell) | 1 | 71.6 | active
USP28 | Vehicle | OCI-C5x (clear cell) | 2 | 56.6 | active
USP28 | Vehicle | OCI-C5x (clear cell) | 3 | 53.5 | active
USP28 | Vehicle | OCI-P5x (serous) | 1 | 63.3 | active
USP28 | Vehicle | OCI-P5x (serous) | 2 | 78.6 | active
USP28 | Vehicle | OCI-P5x (serous) | 3 | 80.3 | inactive

A portion from the list above:
gene | rucaparib or vehicle | cell line | technical replicate | viability, normalised (%) | outcome
BABAM2 | Vehicle | OCI-C5x (clear cell) | 1 | 31.9 | active
BABAM2 | Vehicle | OCI-C5x (clear cell) | 2 | 74.7 | active
BABAM2 | Vehicle | OCI-C5x (clear cell) | 2 | 55.3 | active
BABAM2 | Vehicle | OCI-C5x (clear cell) | 3 | 61.7 | active
BABAM2 | Vehicle | OCI-C5x (clear cell) | 3 | 39.8 | active
BABAM2 | Vehicle | OCI-P5x (serous) | 1 | 84.5 | inactive
BABAM2 | Vehicle | OCI-P5x (serous) | 1 | 84.1 | inactive
